PubChem BioAssay AID504793 | Drosophila RNAi Screening Center, 2011

Test: 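Genes required for cells to halt at G2/M after double-strand DNA breaks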 (primary screen)
Cells: Drosophila S2R+ cells
Reagent: long dsRNA against Drosophila genes, about 0.25 µg dsRNA per well
Duration: 4 days of dsRNA, then 4 hours of drug before read-out
Challenge: doxorubicin 0.5 µM for 4 hours to cause double-strand breaks, in cells also given a low, harmless dose of dsRNA against nbs to sensitise the assay
Measurement: 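Per-well count of mitotic cells stained for phospho-histone H3 after doxorubicin exposure, used as mitotic index; counts are raw and not normalised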
Scale: mitotic cells: higher = more cells in mitosis, weaker G2 arrest
Hit rule: 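Genes are called active only when high mitotic counts were reproduced with independent dsRNAs and mitosis was checked for delay without damage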
Meaning of the calls: active = confirmed in follow-up tests; inactive = not confirmed
In all, the deposit lists about 23,000 reagents; shown is a random part of those with a known target gene and a result. In the full data, 62 (0.27%) were called active. 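Calls come from follow-up tests whose scores are not deposited, so confirmed genes may have low counts here; counts are not normalised per plate.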 Raw values vary from plate to plate and are shown uncorrected. Reagents against one gene are numbered here. A plus sign joins genes that one reagent is predicted to hit.

Knock-down of His1:CG33816 + His1:CG33828 + His1:CG33819 + 21 more came out at: mitotic cells, replicate 1 = 9; inactive.
Silencing of Ptpmeg (GeneID 38059) #1 gave: mitotic cells, replicate 1 = 3; inactive.
Silencing of Ptpmeg (GeneID 38059) #2 gave: mitotic cells, replicate 1 = 8; inactive.
After knock-down of fog (GeneID 33148), the record shows mitotic cells, replicate 1 = 6; inactive.
Against CG8861 (GeneID 41109) #1, the entry reads mitotic cells, replicate 1 = 6; inactive.
Silencing of CG8861 (GeneID 41109) #2 gave: mitotic cells, replicate 1 = 7; inactive.
CG10486 (GeneID 38664) showed mitotic cells, replicate 1 = 3; inactive.
After knock-down of CG5892 (GeneID 42522) #1, the record shows mitotic cells, replicate 1 = 8; inactive.
Depletion of CG5892 (GeneID 42522) #2 gave: mitotic cells, replicate 1 = 3; inactive.
CG14282 (GeneID 42301) #1 gave mitotic cells, replicate 1 = 12; inactive.
CG14282 (GeneID 42301) #2 showed mitotic cells, replicate 1 = 3; inactive.
Depletion of CG14860 (GeneID 41803) #1 gave: mitotic cells, replicate 1 = 14; inactive.
Silencing of CG14860 (GeneID 41803) #2 came out at: mitotic cells, replicate 1 = 7; inactive.
CG8249 (GeneID 36742) showed mitotic cells, replicate 1 = 5; inactive.
With knock-down of CG8852 (GeneID 33577) #1, the record shows mitotic cells, replicate 1 = 4; inactive.
Against CG8852 (GeneID 33577) #2, the values are mitotic cells, replicate 1 = 7; inactive.
CG17931 + CG42446 gave mitotic cells, replicate 1 = 9; inactive.
D2hgdh (GeneID 31184) #1 showed mitotic cells, replicate 1 = 4; inactive.
Against D2hgdh (GeneID 31184) #2, the entry reads mitotic cells, replicate 1 = 3; inactive.
CG4734 (GeneID 36477) #1 scored mitotic cells, replicate 1 = 11; inactive.
Knock-down of CG4734 (GeneID 36477) #2 resulted in: mitotic cells, replicate 1 = 8; inactive.

Laid out differently: 2 of the entries above.
gene knocked down | reagent | mitotic cells, replicate 1 | outcome
D2hgdh (GeneID 31184) | 1 | 4 | inactive
D2hgdh (GeneID 31184) | 2 | 3 | inactive

Additional reagents:
Pex11ab (GeneID 36758) scored mitotic cells, replicate 1 = 5; inactive.
Depletion of CG31272 (GeneID 326130) came out at: mitotic cells, replicate 1 = 4; inactive.
CG14570 (GeneID 40416) #1 scored mitotic cells, replicate 1 = 5; inactive.
CG14570 (GeneID 40416) #2 showed mitotic cells, replicate 1 = 9; inactive.
Knock-down of SLIRP2 (GeneID 41021) #1 gave: mitotic cells, replicate 1 = 10; inactive.
With knock-down of SLIRP2 (GeneID 41021) #2 the results were mitotic cells, replicate 1 = 3; inactive.
Pa1 (GeneID 32079) #1 showed mitotic cells, replicate 1 = 9; inactive.
Pa1 (GeneID 32079) #2 showed mitotic cells, replicate 1 = 9; inactive.
For Ag5r (GeneID 44631) #1, the entry reads mitotic cells, replicate 1 = 8; inactive.
Against Ag5r (GeneID 44631) #2 the deposit lists mitotic cells, replicate 1 = 3; inactive.
Csas (GeneID 317923) showed mitotic cells, replicate 1 = 11; inactive.
Tango9 (GeneID 41450) showed mitotic cells, replicate 1 = 7; inactive.
rswl (GeneID 37124) showed mitotic cells, replicate 1 = 6; inactive.
